The data set in a line: general procedure: Boc solid-phase peptide synthesis; styrene-2%-divinylbenzene copolymer. Particulars: whole synthesis, HBr or TFA salt.

Pyroglu-DPhe-Pro-Phe-Phe-Val-DTrpOCH3: the crude mass (scale 6.3 mmoles) came out at 4.06 g.
For the substance t-Boc-DPhe-Pro-Phe-Phe-Val-DLeuNHNH2, under “scale 267 μmoles”, the crude mass was 0.215 g.
